{"source": "paper PMC10974317", "about": "“Anti-COVID Drugs (MMV COVID Box) as Leishmanicidal Agents: Unveiling New Therapeutic Horizons” (Pharmaceuticals, 2024)", "key": {"[1]": {"test_system": "Leishmania donovani promastigotes", "test": "Leishmanicidal activity against promastigotes (alamarBlue assay)", "assay_type": "cell-based", "details": "72 h, mean ± SD, w/a: without activity", "method": "(§1) Initial screening of the 160 compounds against Leishmania promastigotes was performed at 10 μM following MMV foundation instructions provided with the box. The compound activity was assessed using the modified alamarBlue® assay (Invitrogen/Life Technologies, Madrid, Spain) with 10^6 promastigotes per well. DMSO concentration never surpassed 0.1% (v/v) to avoid impacting parasite proliferation or morphology. Subsequently, an EnSpire multimode plate reader (PerkinElmer, MA, USA) was used to measure fluorescence after 72 h. […] Serial dilutions were made in 96-well plates and incubated with parasites for 72 h after adding alamarBlue®. IC50 values were calculated using SigmaPlot 14.0 (Systat Software Inc., Chicago, IL, USA) based on fluorescence measurements. Each concentration was tested in duplicate across three independent experiments."}, "[2]": {"test_system": "Leishmania amazonensis promastigotes", "test": "Leishmanicidal activity against promastigotes (alamarBlue assay)", "assay_type": "cell-based", "details": "72 h, mean ± SD, read-out: inhibitory concentration 50 (IC50), promastigote stage, L. amazonensis", "method": "as §1"}}, "data": [{"smiles": "CO[C@@H]1[C@H](N(C)C(=O)c2ccccc2)C[C@H]2O[C@]1(C)n1c3ccccc3c3c4c(c5c6ccccc6n2c5c31)C(=O)NC4", "note": "[Midostaurin]", "values": [{"measurement": "inhibitory concentration 50 (IC50), promastigote stage, L. donovani", "setting": "[1]", "result": "w/a at 100"}, {"measurement": "IC50", "setting": "[2]", "result": "670 ± 50", "unit": "nM"}]}]}
